Assay results from the supplement of paper PMC6078165.
The reference is the same well before dosing, and untreated signal decays as well.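 Fibroblast labels name human fibroblasts: mostly primary ones from tissues such as uterus (C12385, HUF), lung (H6013), bone (Hs27A), adrenal (HADF) and skin (WS1), plus mammary HMF and breast cancer-associated Hs343T. The cancer cells are basal-like or mesenchymal-like triple-negative breast cancer lines. The paper calls a changed response a hit when it shifts by more than 3x the replicate standard deviation. The tissue of the other fibroblasts is not given here.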

System: HCC1143
Test: relative JC-1 red fluorescence (viability) vs pre-drug, coculture with fibroblast (fraction); higher = more viable cancer cells
Protocol: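 JC-1 labelled TNBC cells cocultured 1:1 (1,500 cells each) with CellTrace Violet stained primary or stromal fibroblasts in 384-well plates in FluoroBrite medium, treated with one of 42 anticancer drugs at 0.1, 1, 10 or 100 uM. JC-1 red fluorescence (mitochondrial integrity in cancer cells only) was read by plate reader every 8 h for 72 h. Values are normalised to each well's pre-drug value. The stock of one drug was tenfold lower, so its dose labels may be too high.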

CC(=O)O[C@H]1C(=O)[C@@]2(C)[C@H]([C@H](OC(=O)c3ccccc3)[C@]3(O)C[C@H](OC(=O)[C@H](O)[C@@H](NC(=O)c4ccccc4)c4ccccc4)C(C)=C1C3(C)C)[C@]1(OC(C)=O)CO[C@@H]1C[C@@H]2O [Paclitaxel]
relative JC-1 red fluorescence
Conditions	8 h	16 h	24 h	32 h	40 h	48 h	56 h	64 h	72 h
0.1 µM, coculture fibroblast: C12385	0.878	0.765	0.708	0.64	0.586	0.551	0.527	0.511	0.512
0.1 µM, coculture fibroblast: H6013	0.774	0.641	0.615	0.6002	0.541	0.55	0.524	0.518	0.464
0.1 µM, coculture fibroblast: H6019	0.773	0.65	0.584	0.5113	0.45954	0.4411	0.4057	0.3877	0.3742
0.1 µM, coculture fibroblast: H6076	0.811	0.711	0.6673	0.675	0.586	0.577	0.558	0.539	0.57
0.1 µM, coculture fibroblast: H6231	0.832	0.821	0.685	0.633	0.565	0.53	0.482	0.453	0.444
0.1 µM, coculture fibroblast: HADF	0.738	0.631	0.581	0.551	0.4469	0.43	0.395	0.384	0.328
0.1 µM, coculture fibroblast: HCFa	0.822	0.698	0.652	0.636	0.539	0.517	0.474	0.442	0.417
0.1 µM, coculture fibroblast: HCPF	0.818	0.839	0.753	0.6445	0.646	0.596	0.549	0.509	0.505
0.1 µM, coculture fibroblast: HHSteC	0.863	0.73	0.666	0.607	0.516	0.484	0.443	0.414	0.341
0.1 µM, coculture fibroblast: HMF	0.818	0.7568	0.676	0.691	0.584	0.568	0.531	0.518	0.523
0.1 µM, coculture fibroblast: HPFa	0.90234	0.78	0.69	0.594	0.502	0.471	0.418	0.395	0.38
0.1 µM, coculture fibroblast: HUF	0.854	0.715	0.652	0.57	0.507	0.485	0.426	0.396	0.383
0.1 µM, coculture fibroblast: Hs5	0.872	0.844	0.814	0.824	0.726	0.688	0.653	0.621	0.6318
0.1 µM, coculture fibroblast: Hs27A	0.7159	0.641	0.581	0.615	0.521	0.539	0.506	0.498	0.419
0.1 µM, coculture fibroblast: Hs343T	0.821	0.737	0.687	0.676	0.57	0.534	0.495	0.479	0.468
0.1 µM, coculture fibroblast: WS1	0.842	0.692	0.5946	0.488	0.408	0.36852	0.345	0.337	0.336
1 µM, coculture fibroblast: C12385	0.8294	0.684	0.633	0.548	0.487	0.459	0.438	0.428	0.437
1 µM, coculture fibroblast: H6013	0.769	0.6643	0.621	0.608	0.539	0.538	0.513	0.504	0.443
1 µM, coculture fibroblast: H6019	0.814	0.693	0.647	0.566	0.53	0.5187	0.48	0.462	0.454
1 µM, coculture fibroblast: H6076	0.8053	0.756	0.707	0.709	0.634	0.614	0.586	0.571	0.597
1 µM, coculture fibroblast: H6231	0.8257	0.756	0.642	0.608	0.527	0.493	0.446	0.409	0.403
1 µM, coculture fibroblast: HADF	0.755	0.65	0.585	0.547	0.453	0.443	0.412	0.401	0.348
1 µM, coculture fibroblast: HCFa	0.838	0.722	0.657	0.604	0.512	0.485	0.436	0.407	0.339
1 µM, coculture fibroblast: HCPF	0.826	0.752	0.697	0.65	0.572	0.529	0.4853	0.4542	0.449
1 µM, coculture fibroblast: HHSteC	0.863	0.762	0.72	0.666	0.58	0.543	0.489	0.459	0.388
1 µM, coculture fibroblast: HMF	0.799	0.776	0.68	0.638	0.539	0.493	0.445	0.422	0.431
1 µM, coculture fibroblast: HPFa	0.8952	0.788	0.726	0.6227	0.548	0.516	0.461	0.436	0.416
1 µM, coculture fibroblast: HUF	0.894	0.7803	0.7289	0.6278	0.554	0.535	0.486	0.472	0.452
1 µM, coculture fibroblast: Hs5	0.8291	0.78	0.719	0.707	0.596	0.576	0.543	0.516	0.531
1 µM, coculture fibroblast: Hs27A	0.8	0.745	0.735	0.76	0.716	0.767	0.7251	0.729	0.624
1 µM, coculture fibroblast: Hs343T	0.829	0.797	0.751	0.723	0.612	0.575	0.512	0.494	0.498
1 µM, coculture fibroblast: WS1	0.796	0.649	0.586	0.484	0.403	0.354	0.309	0.283	0.275
10 µM, coculture fibroblast: C12385	0.896	0.844	0.799	0.707	0.643	0.591	0.551	0.52	0.509
10 µM, coculture fibroblast: H6013	0.818	0.731	0.702	0.681	0.603	0.596	0.57	0.565	0.516
10 µM, coculture fibroblast: H6019	0.8156	0.724	0.678	0.614	0.59	0.586	0.552	0.541	0.525
10 µM, coculture fibroblast: H6076	0.886	0.79	0.776	0.879	0.866	0.867	0.845	0.815	0.834
10 µM, coculture fibroblast: H6231	0.8268	0.882	0.769	0.596	0.593	0.532	0.474	0.435	0.407
10 µM, coculture fibroblast: HADF	0.762	0.679	0.60833	0.5886	0.4868	0.478	0.444	0.418	0.359
10 µM, coculture fibroblast: HCFa	0.852	0.729	0.68	0.635	0.5386	0.505	0.448	0.422	0.372
10 µM, coculture fibroblast: HCPF	0.8349	0.8923	0.7997	0.641	0.666	0.61	0.556	0.525	0.507
10 µM, coculture fibroblast: HHSteC	0.8566	0.761	0.721	0.683	0.588	0.563	0.511	0.491	0.418
10 µM, coculture fibroblast: HMF	0.831	0.887	0.765	0.638	0.593	0.529	0.46427	0.4275	0.401
10 µM, coculture fibroblast: HPFa	0.904	0.823	0.724	0.625	0.523	0.486	0.423	0.388	0.366
10 µM, coculture fibroblast: HUF	0.904	0.826	0.731	0.636	0.562	0.513	0.483	0.466	0.458
10 µM, coculture fibroblast: Hs5	0.8961	0.862	0.84	0.83	0.727	0.677	0.649	0.618	0.633
10 µM, coculture fibroblast: Hs27A	0.794	0.706	0.678	0.68	0.577	0.575	0.54	0.524	0.452
10 µM, coculture fibroblast: Hs343T	0.844	0.918	0.816	0.66	0.608	0.524	0.448	0.398	0.364
10 µM, coculture fibroblast: WS1	0.835	0.724	0.654	0.548	0.47	0.434	0.397	0.37033	0.364
